Library screen at single concentrations

The chains behind the UniProt entries cited, without tags or fusion partners. Residues count along the entry.
UniProt Q4DA54, 1-478: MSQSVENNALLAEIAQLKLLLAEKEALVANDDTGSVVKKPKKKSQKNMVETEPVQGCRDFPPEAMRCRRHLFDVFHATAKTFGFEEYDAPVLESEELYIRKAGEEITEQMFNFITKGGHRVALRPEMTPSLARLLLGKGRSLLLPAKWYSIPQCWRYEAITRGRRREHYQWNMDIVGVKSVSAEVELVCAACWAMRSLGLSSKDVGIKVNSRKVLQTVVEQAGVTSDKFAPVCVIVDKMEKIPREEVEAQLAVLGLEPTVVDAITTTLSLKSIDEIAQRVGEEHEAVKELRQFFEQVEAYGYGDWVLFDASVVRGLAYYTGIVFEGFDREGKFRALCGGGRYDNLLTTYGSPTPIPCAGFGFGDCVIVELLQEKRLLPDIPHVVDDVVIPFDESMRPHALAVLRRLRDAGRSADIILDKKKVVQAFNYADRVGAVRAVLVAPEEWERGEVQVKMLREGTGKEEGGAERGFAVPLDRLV
UniProt Q8IDJ8, 1-583: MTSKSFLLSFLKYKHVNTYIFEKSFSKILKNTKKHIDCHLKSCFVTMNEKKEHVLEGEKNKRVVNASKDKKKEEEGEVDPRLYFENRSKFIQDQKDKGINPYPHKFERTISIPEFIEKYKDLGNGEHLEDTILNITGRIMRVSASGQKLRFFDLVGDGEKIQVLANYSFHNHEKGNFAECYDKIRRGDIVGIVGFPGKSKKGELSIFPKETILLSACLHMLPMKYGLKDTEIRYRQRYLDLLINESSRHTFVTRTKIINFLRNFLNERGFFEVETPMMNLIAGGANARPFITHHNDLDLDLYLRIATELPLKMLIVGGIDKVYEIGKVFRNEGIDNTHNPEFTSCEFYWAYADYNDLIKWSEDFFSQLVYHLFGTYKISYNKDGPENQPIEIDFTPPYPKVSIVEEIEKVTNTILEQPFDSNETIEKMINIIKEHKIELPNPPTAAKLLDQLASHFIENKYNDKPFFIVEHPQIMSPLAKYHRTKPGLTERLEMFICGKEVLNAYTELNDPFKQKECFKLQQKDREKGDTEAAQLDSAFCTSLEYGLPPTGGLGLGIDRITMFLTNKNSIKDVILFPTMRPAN

TcHisRS: 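Enzyme assay of histidyl-tRNA synthetase; the read-out is not stated. Target: Histidine-tRNA ligase, Trypanosoma cruzi CL Brener (UniProt Q4DA54). Concentration: 30 µM. Direction is inferred from retests: higher values go with stronger inhibition. About 69,000 compounds were tested under these conditions; 0.045% (about 31) showed 50% or more at least once.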
PfKRS1: 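Lysine-tRNA ligase, Plasmodium falciparum 3D7 (UniProt Q8IDJ8). Enzyme assay of the cytosolic lysyl-tRNA synthetase in 384-well plates, read by luminescence. Tested at 30 µM. Direction is inferred from only a few compounds that gave an IC50; most scored high, so higher reads as stronger inhibition. Of about 69,000 compounds tested this way, about 49 (0.071%) reached 50% or more in at least one test.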

Values are the deposited “Percent Effect”, in %. How 0% and 100% were set is not recorded. Most values in the screen are low, and negative values occur. The compounds are a random part of those screened.

compound	TcHisRS	PfKRS1
CC(CC(=O)N1CCC(c2nnc3n2CCC3)CC1)n1cccc1 (configuration not stated)	-1.064	-7.418
CC(=O)c1cc(CC(=O)NCc2cccc(F)c2F)cs1	5.102	5.212
COC(=O)c1ccoc1CN(C1CC1)C1CCS(=O)(=O)C1 (configuration not stated)	4.02	-1.797
CCC1CN(C)c2ccccc2CN1C(=O)Nc1ccccc1OC (configuration not stated)	5.128	-1.007
CC(C)N(CC(N)=O)C(=O)CCC(=O)c1ccc(F)cc1F	3.867	4.696
O=C1NCCN(CC2CCCCC2)C1CC(=O)N1CCc2n[nH]cc2C1 (configuration not stated)	9.877	3.211
COc1ccc(-c2n[nH]cc2C2SCC(=O)Nc3[nH]ncc32)cc1 (configuration not stated)	3.261	7.301
COCCNC(=O)NCCn1nc(C(F)(F)F)n(C)c1=O	1.02	3.519
CN(C)S(=O)(=O)N1CCCC(c2nccn2Cc2cccnc2)C1 (configuration not stated)	2.717	5.939
CC(Cn1cncn1)NC(=O)NCC(C)(C)c1ccc(F)cc1 (configuration not stated)	-0.5435	3.903
O=C1NCCO[C@H]2CN(C(=O)c3cccs3)CC[C@@H]12	6.186	-0.1906
CN1Cc2c(C(=O)Nc3cccnc3)ncn2-c2ccccc2S1(=O)=O	5.785	7.855
COCc1nc2nc(O)c3c(n2n1)NC(=O)CC3c1ccc(SC)cc1 (configuration not stated)	4.39	5.321
COc1ccc2nnc(CCCC(=O)NCCc3ccccn3)n2n1	-0.9901	2.597
O=C(COCc1ccccc1)N1CCCC(OCc2cccnc2)C1 (configuration not stated)	-1.212	-1.231
COc1cccc(C(CO)NC(=O)Cc2cccc(C)c2)c1 (configuration not stated)	6.818	3.124
O=C(CC(SC1CCCCC1)C(=O)O)c1ccc(Cl)cc1 (configuration not stated)	2.083	5.021
CN(Cc1cccc(C#N)c1)Cc1nc2c(cnn2C)c(=O)[nH]1	4.046	1.402
Cc1ccc(NCCCc2c(C)noc2C)nn1	3.093	-0.07253
COCCOc1ccnc(-c2noc([C@@H]3CCCN3C)n2)c1	8.696	3.682
COCC(=O)NCC(Cc1cccc(F)c1)n1cccc1 (configuration not stated)	-2.062	-3.044
Nc1nccc(-c2cccc3ccnn23)n1	4.762	3.096
Cc1ccc(C(=O)NCCCNS(C)(=O)=O)c(=O)[nH]1	-1.604	4.853
Cn1ccnc1CN1CCC2(CC1)CC(NC(=O)c1ccccn1)CO2 (configuration not stated)	-8.696	-0.1189
CC1=N[C@@]2(CC[C@@H]3CN(S(=O)(=O)CC(C)C)C[C@@H]32)C(=O)N1C	4.926	-3.321
Cn1ccc(C(=O)N2C[C@@H]3OCCN(c4ncccn4)[C@@H]3C2)n1	5.714	0.401
CCn1cc(CN2CCCC(COc3ccc(F)cc3)C2)cn1 (configuration not stated)	6.627	4.553
CN(CC1CCCO1)c1nc(-c2cccnc2)nc2c1CCNCC2 (configuration not stated)	5.882	3.312
FC(F)(F)c1ccc(-c2n[nH]c3c2CN(CC2CCOC2)CC3)cc1 (configuration not stated)	1.734	-1.264
COCCN1C[C@H]2CC[C@@H]1CN(C(=O)CCn1cc(Cl)cn1)C2	0.431	2.319
Cc1cc(N(C)C)nc(C2COCCN2Cc2cscn2)n1 (configuration not stated)	2	-1.074
CC(C)c1noc(C[S+]([O-])CC(=O)Nc2cc(F)ccc2F)n1 (configuration not stated)	5.102	4.038
CN1C(=O)CC[C@@H]2[C@H]1CCN2S(=O)(=O)c1cccs1	1.942	1.858
O=C(CCc1cc2n(n1)CCN(CCCn1cccc1)C2)N1CCCC1	8.52	7.157
CCCN1CCC(N2CCC(Cn3cc(CC(C)O)nn3)CC2)CC1 (configuration not stated)	13.58	1.986
CC(C)(C)c1csc(CCNC(=O)[C@H](c2ccccc2)n2cnnn2)n1	4.124	1.765
CN1CCCN(C(=O)NCCOc2ccc3c(c2)OCO3)CC1	1.714	-0.2351
Cc1ccc(N(C)C2CCCN(C(=O)Nc3ccc(F)cc3F)C2)cc1 (configuration not stated)	6.077	2.392
O=C(NCc1csc(Br)c1)c1cnccn1	4.274	30.43
Cc1nn(C)c2c(NCc3ccc(F)cc3)nc(C3CC3)nc12	-3.509	5.149
Cc1nc(C)n(CC2CCCN(CCOc3cccc(C#N)c3)C2)n1 (configuration not stated)	-1.504	-6.647
NC1CCCN(C(=O)c2csc(-c3ccc(C(F)(F)F)cc3)n2)CC1 (configuration not stated)	2.146	-3.747
CN1CCC(n2nc(Cc3cccc(Cl)c3)nc2Cn2ccnc2)CC1	5.641	2.231
Cn1cc(-c2ncc3c(c2C(=O)O)CCN(CC2CC2)C3)cn1	2.513	1.441
C[C@@H]1CN(Cc2ccc(-c3ccncc3)cc2F)CC(C(N)=O)O1 (some centres not stated)	0	-4.461
CCc1oc(C(=O)N[C@@H]2c3ccccc3C[C@@H]2O)cc1CN1CCCC1	8.696	-0.2186
Cn1cnnc1SCc1cc2c(cc1Cl)OCO2	4.95	-0.1811
COC(=O)c1ccn(COc2ccccc2Cl)n1	-0.4425	5.1
CCOC[C@H]1CC[C@H]2[C@H](CCN2C(=O)c2cnccn2)O1	1.869	-0.7408
Cc1nnc(CN(C)C2CCN(CCc3ccccn3)CC2)o1	1.17	0.6854
CN(CCO)C[C@@H]1CN(C(=O)c2c(F)cccc2Cl)C[C@@H]1CO	3.347	1.729
CO[C@H]1CN(C(=O)c2cccnc2)[C@@H]2CCCO[C@H]12	1.442	-0.03647
CN(C)c1ncccc1CNCc1ccc(N2CCOCC2)cc1	7.182	-4.15
O=C1NC(c2ccccc2)=N[C@@]12CC[C@@H]1CN(Cc3nccs3)C[C@@H]12	3.483	5.608
O=C(NC[C@H]1OC[C@@H](NC2CCCCC2)[C@@H]1O)Nc1ccccc1	2.174	-0.5801
O=C(COCC(F)(F)F)NC1CCCc2cc(OC(F)F)ccc21 (configuration not stated)	4.444	0.3894
Cc1cc(C)n(C2CCCN(C(=O)c3c(C)c(C)n[nH]c3=O)C2)n1 (configuration not stated)	1.887	9.104
CN(CCCc1nccn1C)c1nccc(N2CCC(O)C2)n1 (configuration not stated)	1.205	0.2666
CCC(CNS(=O)(=O)c1c[nH]cn1)Oc1ccccc1F (configuration not stated)	1.053	4.981
CS(=O)(=O)N1CC[C@H]2OCC[C@@]2(C(=O)NCCc2ccccn2)C1	-1.058	0.9158
Cc1noc(C)c1CSC1CCCN(c2cnn(C)c2)C1=O (configuration not stated)	8.696	9.819
Cc1cnn(CC2CCCCN2C(=O)Cc2cn3ccsc3n2)c1 (configuration not stated)	0	3.639
Cc1cc(C)cc(NCCC(=O)NC2CCN(C(=O)C3CC3)CC2)c1	6.736	5.58
CCCNC(=O)COc1ccc(-c2ccccc2)nc1	-3.867	1.56
Cc1ccc(C(=O)NC2CCN(C(C)C)C2)c(=O)[nH]1 (configuration not stated)	10.05	-2.019
c1cncc(-c2ncnc3c2CCN(Cc2cccs2)CC3)c1	6.542	-4.561
CC(C)N1CCC(NC(=O)c2cn(-c3ccc(F)cc3)nn2)C1 (configuration not stated)	7.182	5.994
Cc1cccc(CNC2CC(=O)N(Cc3cccc(F)c3)C2)c1 (configuration not stated)	-2.5	2.033
CNC(=O)CN(C)Cc1ccc(F)cc1Cl	2.116	0.9024
CC(O)CN1CCN(C(=O)c2cc(Cl)cc3cccnc23)CC1 (configuration not stated)	3.226	-0.5689
CCN1C(=O)C2(CCCCC2)NC12CCSCC2	8.387	3.23
O=C1CCc2cc(S(=O)(=O)NCc3cc4n(n3)CCNC4)ccc2N1	11.76	1.791
COC(=O)c1sccc1S(=O)(=O)NCCC(O)c1ccco1 (configuration not stated)	3.093	-1.46
CCOCC(=O)Nc1ncn(Cc2cccc(Br)c2)n1	-1.685	-3.896
Cc1nc2sccn2c1CNC1(c2ccccc2F)CCCC1	4.545	3.778
CC(C)c1nc(C2CCCN2CCS(=O)(=O)c2ccccc2)no1 (configuration not stated)	8.504	-1.091
NC(=O)c1cccc(C(=O)N2CCCC(n3ccnc3)C2)c1 (configuration not stated)	2.907	2.077
CC(Oc1ccccc1C(F)(F)F)C(=O)NCCC(=O)N(C)C (configuration not stated)	1.604	7.358
CCc1nccn1C1CCCN(C(=O)c2cn3c(C)cccc3n2)C1 (configuration not stated)	-1.087	7.974
Cc1noc(C)c1CN1CC[C@H]2OCC[C@@]2(C(=O)N2CCOCC2)C1	9.244	1.818
CN(Cc1cnn(C)c1)c1nccc(-c2cc(C(=O)O)ccn2)n1	3.483	-1.048

For reference, 6 entries once more:

compound,TcHisRS,PfKRS1
O=C1CCc2cc(S(=O)(=O)NCc3cc4n(n3)CCNC4)ccc2N1,11.76,1.791
Cn1ccnc1CN1CCC2(CC1)CC(NC(=O)c1ccccn1)CO2 (configuration not stated),-8.696,-0.1189
CN(Cc1cnn(C)c1)c1nccc(-c2cc(C(=O)O)ccn2)n1,3.483,-1.048
CCCNC(=O)COc1ccc(-c2ccccc2)nc1,-3.867,1.56
CC(C)N1CCC(NC(=O)c2cn(-c3ccc(F)cc3)nn2)C1 (configuration not stated),7.182,5.994
Cc1cc(N(C)C)nc(C2COCCN2Cc2cscn2)n1 (configuration not stated),2,-1.074

From ChEMBL document CHEMBL3988442, “University of Dundee, Small-Polar-MMV Screening Library” (2021).